The values that follow come from article PMC12040169 (PLOS Biology, 2025).

The other results are listed elsewhere or left out.

In this assay the test system is T1, CTL2-GFP (C. trachomatis L2/434/Bu, GFP-expressing).
T1 construct: L2/434/Bu, GFP-expressing
Details: species or system HeLa; Intracellular C. trachomatis growth in HeLa cells, bulk GFP fluorescence relative to DMSO. The conditions noted are these: bulk GFP, single well; 28.5 h, 10 µM; inhibitor.
Regarding `COc1ccc([C@@]23CCCN(C(=O)Nc4ccc(SC(F)(F)F)cc4)C[C@@H]2N(C)CC3)cc1OC` [CBK056681T], the “% of control remaining” value was determined as 164.03%.

Turning to `Cc1cc2c(s1)c1cnn(CC(=O)NC(C)(C)C)c(=O)c1n2C` [CBK284158], the “% of control remaining” value came to 134.173%. As for `COC(=O)c1ccsc1NS(=O)(=O)c1cc(Br)ccc1OC` [CBK039065], the figure is 104.38%. Regarding `Cc1cc(C)nc(N/C(=N/C(=O)Cc2ccccc2)N2CCC(C(N)=O)CC2)n1` [CBK263889], the “% of control remaining” value is given as 103.325%. `CC(C)(C)c1ccc(-c2cnc(N)c3ncccc23)cc1` [CBK067589]: the “% of control remaining” value was 96.4282%.

As for `Cc1ccc(CNC(=O)OCCN2CCN(C)CC2)n1C` [CBK200287], the “% of control remaining” value stood at 118.078%. As for `Cc1ccc2sc(NC(=O)c3ccc(Cl)s3)nc2c1C` [CBK291144], the figure is 117.947%. With `COc1ccc(-c2ccccc2NC(=O)c2ccc(Cn3cnnn3)cc2)cc1` [CBK285866], the “% of control remaining” value amounted to 131.408%. As for `CC(C)CC1(C(CCN2C(=O)c3ccccc3C2=O)C(=O)NO)CCN(Cc2cccc(F)c2)C1=O` (stereo not drawn) [CBK013032], the figure is 142.363%. The result for `COc1ccc(CCc2nc(C)cc(CN(C)C)c2O)cc1` [CBK278313C] reads 114.169%; that for `CCNc1nc2c(c(=O)[nH]c(=O)n2C)n1CCCc1ccccc1` [CBK269243], 128.113%; that for `COc1ccc(C(C)C)cc1-c1cnc(N)c(NCCCN2CCOCC2)n1` [CBK063625], 130.498%. As for `CN1CCN(c2cc(N3CCN(C)CC3)c([N+](=O)[O-])cc2C2Nc3ccc4ccccc4c3C3=C2C(=O)CC(C)(C)C3)CC1` (stereo not drawn) [CBK262381], the figure is 78.3154%; as for `OCc1cccc(-c2nccnc2NCC(O)COc2ccccc2)c1` (stereo not drawn) [CBK036842], 170.605%; as for `O=C(O)CCNS(=O)(=O)c1ccc(Br)cc1` [CBK261941], 109.459%. Turning to `O=C(O)CCCc1[nH]nc(O)c1Cc1c(Cl)cccc1Cl` [CBK081137], the “% of control remaining” value worked out at 73.3125%. The result for `O=C(Nc1cccc2ccccc12)C(c1ccccc1)N1CCOCC1` (stereo not drawn) [CBK269388] reads 92.6743%. As for `CC(=O)Nc1cccc(-c2cc(Nc3ccc(N4CCN(Cc5ccccc5)CC4)cc3)ncn2)c1` [CBK037709], the figure is 136.468%; as for `O=C(O)CCC(=O)NNC(=O)c1ccc(O)cc1` [CBK261353], 96.8552%.

As for `CCCCc1ccc(-c2cnc3ncccc3c2N)cc1` [CBK083683], the “% of control remaining” value is recorded as 98.4012%. Regarding `CNC(=S)NCc1nc(-c2ccc(C)cc2)no1` [CBK288418], the “% of control remaining” value is listed as 88.7812%.

`CC1(C)CC2(CC(C)(C(=O)CSc3nnc(-c4ccccc4Br)[nH]3)OC2=O)C(=O)O1` (stereo not drawn) [CBK266713]: the “% of control remaining” value worked out at 149.858%.

Take `Cc1ccc(S(=O)(=O)Nc2ccc(C(=O)O)cc2)cc1` [CBK034060]: the “% of control remaining” value is 120.556%. The result for `OC(COc1cccc(Oc2ccccc2)c1)CN1CCN(c2ccccc2F)CC1` (stereo not drawn) [CBK267468] reads 153.401%; that for `CC(NC(=O)c1ncoc1-c1ccc2ccccc2c1)c1cccnc1` (stereo not drawn) [CBK282441], 112.993%. As for `CCCCNC(=O)c1nnc(C(=O)Nc2cccc(Cl)c2)s1` [CBK294407], the figure is 148.014%; as for `Cc1c(C(=O)NC(Cc2cccs2)c2nccs2)cnn1C` (stereo not drawn) [CBK285053], 132.446%; as for `Cc1nn(C)c(C)c1CN1CCOC(c2nc(C(C)(C)C)cs2)C1` (stereo not drawn) [CBK304170], 127.597%. As for `O=C(CCn1cccn1)NCC1CCCOC1` (stereo not drawn) [CBK281474], the figure is 106.802%; as for `COc1cc(-c2nccnc2N2CCCN(C)CC2)cc(OC)c1OC` [CBK037994], 86.5342%. For the compound `C[C@@H](c1ccccc1)n1c(=O)[nH]c2ncc(-c3cccc(/C=C/C(=O)O)c3)nc21` [CBK065040], the “% of control remaining” value is listed as 98.0919%. The result for `COc1cc2c(cc1OC)C1c3ccccc3NC(c3ccc(C)cc3)N1CC2` (stereo not drawn) [CBK286195] reads 129.323%; that for `COc1ncc(-c2cncc(N[C@H](C)c3ccccc3)n2)c(OC)n1` [CBK065267], 177.522%. `Cn1ccc(C(=O)N2CCC[C@H](C(=O)c3cccs3)C2)n1` [CBK282412]: the “% of control remaining” value is on record as 155.866%. Turning to `c1cc(COc2ccc(N3CCNCC3)nn2)co1` [CBK022562], the “% of control remaining” value worked out at 156.955%. In the case of `O=C(Cn1cccc(C(=O)Nc2ccc(F)cc2)c1=O)NC1(c2ccccc2)CCCC1` [CBK286057], the “% of control remaining” value is recorded as 123.997%. As for `CCCCCC(=O)Nc1ccc(C(=O)CSc2nnc(-c3ccco3)o2)cc1` [CBK295134], the “% of control remaining” value worked out at 160.298%. The result for `CCCC(=O)Nc1c(F)cc(F)cc1OC1CCNCC1` [CBK045892T] reads 175.941%; that for `Cc1cc(C)c2c(N)c(C(=O)O)sc2n1` [CBK131868], 118.974%; that for `CCN1CCN(c2ccc([N+](=O)[O-])cc2S(=O)(=O)N2CCOCC2)CC1` [CBK264410], 135.021%. Take `Cc1nc(-c2cccc(OC(F)F)c2)n(C2CCN(C)CC2)n1` [CBK307382]: the “% of control remaining” value was 142.715%. The result for `O=C(O)c1cc(-c2ccc(F)cc2)n[nH]1` [CBK267848] reads 137.938%; that for `COCC(C)NC(=O)Cn1c(C(F)F)cc2cccnc21` (stereo not drawn) [CBK285010], 98.4084%; that for `O=C(c1cnc2ccccc2c1)N1CCC(F)CC1` [CBK200273], 157.534%. Regarding `Cc1cccc(CSc2nnc(C(C)NC(=O)c3ccccc3F)n2C)c1` (stereo not drawn) [CBK269732], the “% of control remaining” value was 114.726%. The result for `O=C(c1cscn1)N1CCCC(n2cnc3cc(F)ccc32)C1` (stereo not drawn) [CBK284477] reads 150.969%; that for `COc1ccc(NS(=O)(=O)c2cccs2)c(OC)c1` [CBK043915], 85.8075%; that for `COc1cc(Nc2cncc(-c3cccc(F)c3)n2)cc(OC)c1OC` [CBK065272], 182.928%. As for `Cc1cc(-c2cn3cc(C(=O)N4CCCC4C)nc3c(=O)n2C)c(C)o1` (stereo not drawn) [CBK307038], the figure is 130.195%; as for `O=S1(=O)c2cc(/N=C/c3c(O)ccc4ccccc34)ccc2-c2ccc(/N=C/c3c(O)ccc4ccccc34)cc21` [CBK261240], 100%; as for `CC[C@H]1CN(C(=O)Nc2ccccc2)CC[C@H]1CC(=O)N(C)CC#N` [CBK288777], 130.919%.
